Laboratory results published in article PMC11055865.
A weaker result is weaker than the reference pair of the same experiment. For some of these results: Where a protein sequence is shown, tags need not be part of it. For some of these results: For at least one entry, the source does not settle the construct or the ends of the probe. For some of these results: At least one verdict was read from the data and is not stated in words by the source.

Experiments:
[1] = system: pMCM8 (phosphorylated complex) + pMCM9 (phosphorylated complex); assay: EMSA; conditions: 3 mM EDTA, EMSA: 25 mM Tris-acetate pH 7.5, 3 mM EDTA (or 4 mM ATP/ATPgS + 1 mM Mg acetate), 1 mM DTT, 0.1 mg/ml BSA, 1 nM DNA (100 ng for M13), 15 min on ice, gels at 4 C, recombinant protein, protein details: N-terminal FLAG,N-terminal MBP
HROB-FLAG T126P (human) = system: T1, HROB-FLAG T126P (human); assay: EMSA; conditions: 3 mM EDTA, EMSA: 25 mM Tris-acetate pH 7.5, 3 mM EDTA (or 4 mM ATP/ATPgS + 1 mM Mg acetate), 1 mM DTT, 0.1 mg/ml BSA, 1 nM DNA (100 ng for M13), 15 min on ice, gels at 4 C, recombinant protein, residues 1-646, protein details: C-terminal FLAG
T1 sequence (looked up): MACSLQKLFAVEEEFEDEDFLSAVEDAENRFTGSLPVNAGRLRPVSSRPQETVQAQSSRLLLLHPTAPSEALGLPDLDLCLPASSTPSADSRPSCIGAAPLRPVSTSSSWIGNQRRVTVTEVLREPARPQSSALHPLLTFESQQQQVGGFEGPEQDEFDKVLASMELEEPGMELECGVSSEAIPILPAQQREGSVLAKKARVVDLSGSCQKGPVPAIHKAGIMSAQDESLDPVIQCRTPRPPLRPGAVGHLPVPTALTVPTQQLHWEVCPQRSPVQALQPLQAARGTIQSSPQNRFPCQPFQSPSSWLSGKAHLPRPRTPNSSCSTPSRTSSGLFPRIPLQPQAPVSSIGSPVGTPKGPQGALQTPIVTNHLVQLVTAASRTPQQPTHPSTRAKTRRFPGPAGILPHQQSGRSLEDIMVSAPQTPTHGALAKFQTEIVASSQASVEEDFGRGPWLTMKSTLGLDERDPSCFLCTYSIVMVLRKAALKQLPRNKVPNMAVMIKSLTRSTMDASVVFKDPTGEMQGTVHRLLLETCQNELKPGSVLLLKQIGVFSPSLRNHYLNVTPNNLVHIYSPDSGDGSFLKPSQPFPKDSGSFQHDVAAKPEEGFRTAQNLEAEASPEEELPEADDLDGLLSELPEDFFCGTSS

[2] = not bound almost at all, label: 3' 32P-dC on PC1253

Does “TGCCGAATTCTACCAGTGCCAGTGATGGACATCTTTGCCCACGTTGACCC / TGGGTCAACGTGGGCAAAGATGTCCTAGCAATGTAATCGTCTATGACGTT [Y-structure (PC1254/PC1253)]” bind ([1]; no ATP, highest affinity, label: 3' 32P-dC on PC1254, folded or branched DNA)?
Result: binds

Does “TGGGTCAACGTGGGCAAAGATGTCCTAGCAATGTAATCGTCTATGACGTT / TGCCGAATTCTACCAGTGCCAGTGATGGACATCTTTGCCCACGTTGACCC / GTCGGATCCTCTAGACAGCTCCATGATCACTGGCACTGGTAGAATTCGGC / CAACGTCATAGACGATTACATTGCTACATGGAGCTGTCTAGAGGATCCGA [Holliday junction (PC1253/PC1254/PC1255/PC1256)]” bind ([1]; no ATP, highest affinity, label: 3' 32P-dC on PC1253, folded or branched DNA)?
Result: binds

Does “GTCGGATCCTCTAGACAGCTCCATGATCACTGGCACTGGTAGAATTCGGC / CATGGAGCTGTCTAGAGGATCCGAC [3' overhang (PC1255/314)]” bind (HROB-FLAG T126P (human); not bound almost at all, label: 3' 32P-dC on PC1255)?
Result: binds more weakly

Does “GTCGGATCCTCTAGACAGCTCCATGATCACTGGCACTGGTAGAATTCGGC / CATGGAGCTGTCTAGAGGATCCGAC [3' overhang (PC1255/314)]” bind ([1]; only slightly less than HJ and Y, label: 3' 32P-dC on PC1255)?
Result: binds more weakly

Does “GAGATCTATCTGGTGCCTTCTGACAGTGAATGGGTAACGAATCGTAATAGTCTCTAGACAGCATGTCCTAGCAATGTAATCGTCTATGACGTC [X12-3 HJ3 (93 nt ssDNA)]” bind ([1]; 30 mM NaCl, label: 3' 32P-dC (terminal transferase), single-stranded DNA)?
Result: binds

Does “GAGATCTATCTGGTGCCTTCTGACAGTGAATGGGTAACGAATCGTAATAGTCTCTAGACAGCATGTCCTAGCAATGTAATCGTCTATGACGTC [X12-3 HJ3 (93 nt ssDNA)]” bind ([1]; 100 mM NaCl, binding inhibited by salt, label: 3' 32P-dC (terminal transferase), single-stranded DNA)?
Result: binds more weakly

Does “TGGGTCAACGTGGGCAAAGATGTCCTAGCAATGTAATCGTCTATGACGTT / AACGTCATAGACGATTACATTGCTA [5' overhang (PC1253/312)]” bind (HROB-FLAG T126P (human); [2])?
Result: binds more weakly

Does “TGGGTCAACGTGGGCAAAGATGTCCTAGCAATGTAATCGTCTATGACGTT / AACGTCATAGACGATTACATTGCTA [5' overhang (PC1253/312)]” bind ([1]; only slightly less than HJ and Y, label: 3' 32P-dC on PC1253)?
Result: binds more weakly

Does “TGGGTCAACGTGGGCAAAGATGTCCTAGCAATGTAATCGTCTATGACGTT (double strand) [dsDNA (PC1253/PC1253C)]” bind (HROB-FLAG T126P (human); [2])?
Result: binds more weakly

Does “TGGGTCAACGTGGGCAAAGATGTCCTAGCAATGTAATCGTCTATGACGTT [PC1253 (50 nt ssDNA)]” bind (HROB-FLAG T126P (human); less efficient than 93 nt, label: 3' 32P-dC, single-stranded DNA)?
Result: binds more weakly
